# No constants are given. Whether binding was seen depends on the method and setting. Binding seen in cells or lysates may run through a third protein. These calls come from enrichment with a bait or labelling near it, and not all partners need be listed.
# Amino acid sequences for entries named in this document (tags omitted).
# UniProt P19474: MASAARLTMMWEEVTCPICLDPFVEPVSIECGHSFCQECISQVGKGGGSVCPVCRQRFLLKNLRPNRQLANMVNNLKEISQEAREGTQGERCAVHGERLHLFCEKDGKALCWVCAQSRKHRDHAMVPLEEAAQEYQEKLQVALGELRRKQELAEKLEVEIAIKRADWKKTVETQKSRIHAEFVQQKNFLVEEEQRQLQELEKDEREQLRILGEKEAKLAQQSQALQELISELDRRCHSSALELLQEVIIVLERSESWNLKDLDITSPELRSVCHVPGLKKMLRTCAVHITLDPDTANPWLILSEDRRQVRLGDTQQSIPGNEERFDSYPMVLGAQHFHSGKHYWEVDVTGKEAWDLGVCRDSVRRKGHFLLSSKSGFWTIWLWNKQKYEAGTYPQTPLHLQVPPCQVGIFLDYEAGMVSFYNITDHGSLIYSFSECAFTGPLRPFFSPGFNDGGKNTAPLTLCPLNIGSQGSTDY
# Molecular target: T1, p15INK4b-related sequence/regulation of nuclear pre-mRNA domain-containing protein 1A (RPRD1A) (human (endogenous in MHCCLM3)) (UniProt Q96P16)
# T1 sequence: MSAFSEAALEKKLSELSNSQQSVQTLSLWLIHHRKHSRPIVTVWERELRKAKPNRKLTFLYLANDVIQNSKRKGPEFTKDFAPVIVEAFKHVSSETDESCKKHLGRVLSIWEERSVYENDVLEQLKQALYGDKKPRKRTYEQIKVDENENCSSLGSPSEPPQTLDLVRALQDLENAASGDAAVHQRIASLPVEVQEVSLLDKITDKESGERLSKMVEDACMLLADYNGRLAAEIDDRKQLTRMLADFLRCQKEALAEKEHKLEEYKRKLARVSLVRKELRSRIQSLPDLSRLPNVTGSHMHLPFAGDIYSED
# Assay: affinity purification with mass spectrometry; immunoprecipitation from MHCCLM3 cells with antibody against RPRD1A, SDS-PAGE, coomassie staining, indicated bands excised for mass spectrometry
substance,measurement,value
TRIM21 (from UniProt P19474 1-475),binding,binds

# From PMC8683478
